Measured data: PubChem BioAssay AID686938 (Drosophila RNAi Screening Center, 2013)
The screen tested about 23,000 reagents; shown is a random part of those that have a named target and a result. Of all reagents, 75 (0.33%) are marked active. 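Raw plate signals without normalisation; calls rest on plate z-scores that were not deposited; ratio present for only 364 wells.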 A plus sign joins genes that one reagent is predicted to hit. Not given: the dose of the treatment.

Purpose: 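Knock-downs reducing store-operated calcium influx in Drosophila cells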 (primary screen)
Cell system: Drosophila S2R+ cells
Reagents: long dsRNA against Drosophila genes, about 0.25 µg dsRNA per well, roughly 10,000 cells
Time to read-out: 5 days of knock-down before the calcium assay
Conditions: thapsigargin (SERCA pump blocker) to empty calcium stores; entry signal taken 4 min after adding it
Detection: 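Duplicate raw fluo-4 intensities per well from a plate reader, at rest and four minutes after thapsigargin emptied calcium stores; entry-to-rest ratio filled for only some wells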
Direction: calcium entry signal: higher = stronger calcium signal after store depletion; resting calcium signal: higher = higher resting calcium signal
Hit rule: 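Called when the plate z-score of the entry-to-rest ratio, mean of duplicates, falls below −3; wells with low overall dye signal (Fmax z below −2) or more than five off-targets excluded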
Calls: active = strongly reduced calcium entry; inactive = no strong reduction

The opening 5 entries, to show the layout:
Gene	amplicon	calcium entry signal, replicate 1 (fluorescence units)	calcium entry signal, replicate 2 (fluorescence units)	resting calcium signal, replicate 1 (fluorescence units)	resting calcium signal, replicate 2 (fluorescence units)	Call
Lcch3	DRSC22175	3.12e7	3.98e7	1.71e7	2.11e7	inactive
CG12698	DRSC19485	3.62e7	2.81e7	1.83e7	1.31e7	inactive
Galk	DRSC10500	4.20e7	2.83e7	2.89e7	1.32e7	inactive
CG31142	DRSC13647	3.18e7	3.61e7	1.53e7	1.86e7	inactive
Gr39a	DRSC01841	1.67e7	2.77e7	8.20e6	2.40e7	inactive

Main list, from the first entry:
Gene	amplicon	calcium entry signal, replicate 1 (fluorescence units)	calcium entry signal, replicate 2 (fluorescence units)	resting calcium signal, replicate 1 (fluorescence units)	resting calcium signal, replicate 2 (fluorescence units)	Call
Lcch3	DRSC22175	3.12e7	3.98e7	1.71e7	2.11e7	inactive
CG12698	DRSC19485	3.62e7	2.81e7	1.83e7	1.31e7	inactive
Galk	DRSC10500	4.20e7	2.83e7	2.89e7	1.32e7	inactive
CG31142	DRSC13647	3.18e7	3.61e7	1.53e7	1.86e7	inactive
Gr39a	DRSC01841	1.67e7	2.77e7	8.20e6	2.40e7	inactive
Gr39a	DRSC01842	1.73e7	2.95e7	7.65e6	2.47e7	inactive
CG11112	DRSC06038	3.38e7	3.72e7	1.58e7	1.64e7	inactive
kug	DRSC10911	3.53e7	4.48e7	1.63e7	2.92e7	inactive
CG31627	DRSC22143	2.74e7	2.89e7	1.30e7	1.42e7	inactive
Kat60	DRSC12378	3.11e7	2.41e7	1.49e7	1.14e7	inactive
CG12134	DRSC06109	2.47e7	2.28e7	1.22e7	1.12e7	inactive
pont	DRSC17029	2.35e7	2.48e7	1.49e7	1.63e7	inactive
CG6769	DRSC20006	4.29e7	5.42e7	1.98e7	2.27e7	inactive
RpS23	DRSC07169	1.30e7	1.69e7	8.34e6	1.05e7	inactive
CG15153	DRSC02454	5.52e7	3.74e7	2.35e7	1.64e7	inactive
vir-1	DRSC02501	4.83e7	2.73e7	1.99e7	1.29e7	inactive
vir-1	DRSC02863	4.54e7	2.91e7	1.95e7	1.44e7	inactive
CG33483	DRSC14019	3.74e7	4.55e7	1.95e7	1.75e7	inactive
Polr2H	DRSC11642	1.78e7	1.62e7	1.52e7	9.82e6	inactive
CG11000	DRSC12082	3.66e7	4.67e7	1.82e7	2.17e7	inactive
CG11000	DRSC12158	3.68e6	3.52e7	3.59e6	1.58e7	inactive
Sytbeta	DRSC10009	4.64e7	6.71e7	2.29e7	2.43e7	inactive
Sytbeta	DRSC10351	4.16e7	4.37e7	1.82e7	1.61e7	inactive
CG31908	DRSC21864	2.00e7	3.66e7	1.09e7	1.65e7	inactive
CG31908	DRSC23243	4.59e7	2.80e7	2.54e7	1.18e7	inactive
Fur2	DRSC19817	2.13e7	1.87e7	1.26e7	9.87e6	inactive
Prosalpha3	DRSC04644	2.38e7	2.95e7	1.58e7	1.73e7	inactive
l(2)efl	DRSC04698	3.71e7		1.97e7		inactive
d4	DRSC04881	2.91e7		1.36e7		inactive
d4	DRSC22674	3.80e7	3.33e7	1.89e7	1.58e7	inactive
CG34283	DRSC13313	4.51e7	1.84e7	2.24e7	1.04e7	inactive
Cht4	DRSC04603	3.41e7	5.31e7	1.77e7	2.19e7	inactive
CG5167	DRSC15728	2.99e7	3.30e7	1.53e7	1.78e7	inactive
CG17717	DRSC18130	3.04e7	3.77e7	1.34e7	1.79e7	inactive
nesd	DRSC02099	4.47e7		2.19e7		inactive
IKKbeta	DRSC16714	3.21e7	2.31e7	1.52e7	1.11e7	inactive
Mcm2	DRSC16734	4.37e7	5.86e7	2.18e7	2.48e7	inactive
Marcal1	DRSC02718	3.95e7	3.95e7	1.78e7	1.63e7	inactive
CG13436	DRSC06396	1.99e7	2.72e7	1.03e7	1.21e7	inactive
fd96Ca	DRSC16946	4.04e7	6.01e7	2.01e7	2.71e7	inactive
CG9101	DRSC20152	2.27e7	1.75e7	1.31e7	9.76e6	inactive
CG6923	DRSC16136	3.23e7	3.79e7	1.43e7	1.65e7	inactive
mat	DRSC08376	2.05e7	3.36e7	1.06e7	1.45e7	inactive
mat	DRSC22841	2.69e7	4.84e7	1.42e7	2.14e7	inactive
CG32773 (retired record)	DRSC17330	7.55e7	3.84e7	3.56e7	1.91e7	inactive
ECSIT	DRSC12348	4.09e7	3.06e7	2.08e7	1.58e7	inactive
CG7202	DRSC11818	2.65e7	3.23e7	1.28e7	1.52e7	inactive
ms(2)35Ci	DRSC01460	2.77e7	3.23e7	1.47e7	1.45e7	inactive
Rcc1	DRSC09684	2.72e7	2.42e7	2.25e7	1.26e7	inactive
Nagk	DRSC15994	4.09e7	4.88e7	1.68e7	1.97e7	inactive
Arms	DRSC03856	3.25e7	4.50e7	1.51e7	1.92e7	inactive
Arms	DRSC03857	3.26e7	6.56e7	1.49e7	2.83e7	inactive
Arms	DRSC04052	4.58e7		2.16e7		inactive
Arms	DRSC04256	2.32e7	3.02e7	1.49e7	1.89e7	inactive
CG13217	DRSC06339	1.51e7	3.26e7	8.57e6	1.41e7	inactive
CG3088	DRSC10352	5.50e7	4.09e7	3.58e7	1.71e7	inactive
CG33722 + CG18749	DRSC12674	3.30e7	4.16e7	1.56e7	1.88e7	inactive
CG33722 + CG18749	DRSC15386	5.51e7	3.74e7	2.61e7	1.83e7	inactive
CG1307	DRSC12492	3.43e7	4.36e7	1.60e7	1.87e7	inactive
g	DRSC20335	3.70e7	3.36e7	1.90e7	1.64e7	inactive
Axn	DRSC14120	1.12e8	3.36e7	3.15e7	1.59e7	inactive
CG7236	DRSC03037	2.72e7	2.61e7	1.45e7	1.36e7	inactive
CG31087	DRSC14253	3.47e7	8.80e7	1.84e7	3.21e7	inactive
CG3857	DRSC18542	2.91e7	3.77e7	1.36e7	1.72e7	inactive
klar	DRSC08718	4.87e7	3.65e7	2.16e7	1.94e7	inactive
klar	DRSC22393	2.08e7	2.01e7	1.12e7	9.35e6	inactive
mRpL12	DRSC10467	5.37e7	3.28e7	3.42e7	1.37e7	inactive
SERCA	DRSC04600	3.30e7		2.65e7		active
CG9331	DRSC03206	3.32e7		1.63e7		inactive
CG4962	DRSC10464	3.09e7	5.66e7	1.62e7	1.84e7	inactive
Muc68Ca	DRSC10312	4.28e7	3.17e7	2.19e7	1.47e7	inactive
Muc68Ca	DRSC10313	2.16e7	3.00e7	1.14e7	1.29e7	inactive
CG17821	DRSC06696	5.23e7	5.82e7	2.22e7	2.71e7	inactive
Tango9	DRSC14173	2.70e7	4.74e7	1.25e7	1.91e7	inactive
Muc68D	DRSC10569	4.07e7	2.76e7	2.77e7	1.25e7	inactive
